The values are deposited in ChEMBL (CHEMBL3988442, “University of Dundee, Small-Polar-MMV Screening Library” (2021)).

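Viability assay of Plasmodium falciparum sporozoites; the read-out is not stated. The concentration is filed as 10 mM, unlikely as a test dose, so the dose is not known. The record gives no direction; compounds that gave an IC50 in retests scored well above the rest, so higher reads as lower viability. Strong results were mostly tested again. Size under these conditions: about 34,000 compounds, about 280 of them at 50% or above in at least one test.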

Each number is a percent effect as filed.
The record does not define 0% and 100%; most values in the screen are far below 50% and negative numbers occur (in some assays of this library far below -100).
This is an unselected part of the compounds tested.
Two or more numbers in one place are separate tests of the same structure; such repeats can differ widely.

| Compound | Percent Effect |
|---|---|
| `COc1cccc(N2CCC(CNCc3cccc(C#N)c3)C2)c1` (configuration not stated) | 9.912 |
| `CC(=O)N1CCCN(C(=O)NCCCN(C)S(C)(=O)=O)CC1` | -9.878 |
| `CCc1noc(C(C)N2CCN(C)CC2)n1` (configuration not stated) | 2.826 |
| `O=C(CCc1ccc(F)cc1)NS(=O)(=O)c1ccc2c(c1)OCCO2` | 1.171 |
| `CCc1nnsc1C(=O)N1CCCN(Cc2nccn2C)CC1` | -6.243 |
| `CN1CC(C(=O)NCCc2ccc3c(c2)OCCO3)CC1=O` (configuration not stated) | 7.52 |
| `Cc1nc(CNCc2c(C(C)C)nn(C)c2N2CCOCC2)cs1` | 15.59 |
| `O=S(=O)(c1ccccc1F)N1CCCC(c2nccs2)C1` (configuration not stated) | 8.396 |
| `O=C(O)C(F)(F)F.O=C(O)C(F)(F)F.O=C1N(c2cncnc2)CCC12CCCN(Cc1ccccn1)C2` (configuration not stated) | 4.362 |
| `Cc1nc(C2CCCN(C(=O)c3ccco3)C2)no1` (configuration not stated) | -0.4773 |
| `O=C(O)C(F)(F)F.[H][C@@]12C[C@H](C(=O)NC3CC3)CN(CC3CCOCC3)[C@]1([H])CCO2` | 11.15 |
| `O=c1[nH]c(-c2ccccn2)nc2c1CCN(Cc1cccc(O)c1)C2` | 4.972 |
| `COCc1ccc(CN2CCC(O)(Cn3ccc4ncccc43)CC2)o1.Cl` | 6.113 |
| `CC(=O)c1cc(CC(=O)NCc2cccc(F)c2F)cs1` | -6.064 |
| `Cc1ccc(-n2nnc(C(=O)Nc3cc(C)nn3C)c2C2CC2)cc1` | 0.4177 |
| `CC(C)n1ccnc1CN1CCCN(C(=O)c2cscn2)CC1` | 18.14 |
| `Br.Cc1ccc(C(=O)CN(C2=NCCCCC2)c2ccccc2)cc1` | 3.724 |
| `O=C(O)C(F)(F)F.O=S(=O)(C1CC1)N1CCC2(CCCN(c3ncccn3)C2)C1` (configuration not stated) | 8.231 |
| `[H][C@@]12CS(=O)(=O)C[C@]1([H])N(Cc1ncc[nH]1)CCN2CCCc1ccccc1` | -5.218 |
| `Cn1cnc(S(=O)(=O)N2CC3(CCN(c4ccccc4)C3)C2)c1.O=C(O)C(F)(F)F` | 3.713 |
| `COC1CCN(C(=O)CCc2c(C)nc3ccnn3c2C)CC1` | -3.504 |
| `CN(Cc1cccc(C#N)c1)Cc1nc2c(cnn2C)c(=O)[nH]1` | -13.55 |
| `Fc1ccc(-c2noc([C@@H]3Cc4nc[nH]c4CN3)n2)cc1` | 27.52 and 35.27 |
| `CC(=O)Nc1nc(C(=O)N2CCCC(n3ccnc3C)C2)cs1` (configuration not stated) | 9.425 |
| `CC(=O)N1CCCC1c1nccc(C)n1` (configuration not stated) | -13.96 |
| `Cn1nc2c(cc1=O)CN(Cc1nc(-c3cccnc3)no1)CC2` | -2.563 |
| `CC(C)NC(=O)C1CN(C(=O)c2ccco2)CC12CCOCC2` (configuration not stated) | -10.4 |
| `CC(C)c1nc2n(n1)CC(NCc1nnc(-c3ccco3)o1)CC2` (configuration not stated) | -6.4 |
| `O=C(NCCCn1ccnc1)NCC(c1ccco1)N1CCCC1` (configuration not stated) | 8.469 |
| `NC(=O)c1cnc(NC2CC2)nc1CCNC(=O)CC1CCCC1` | 6.777 |
| `Cc1ccc(N2CCC3(CCN(C(=O)c4ccsc4)C3)CC2)nn1.O=C(O)C(F)(F)F` | 3.837 |
| `CN(Cc1noc(C2CC2)n1)C1CCN(Cc2ccccc2C#N)C1` (configuration not stated) | 5.942 |
| `COc1c(C2CCCN2C(=O)c2csc(C3CC3)n2)c(C)nn1C` (configuration not stated) | 10.21 |
| `[H][C@]12CC[C@]([H])(CN(S(=O)(=O)c3cc(-n4cccn4)ccc3C)C1)N(C)C2` | -14.92 |
| `N#CCCSc1sc2c(O)cc(O)nc2c1C#N` | -10.05 |
| `Cc1nc(C)n(CC2CCCN(CCOc3cccc(C#N)c3)C2)n1` (configuration not stated) | 10.72 |
| `Cc1nn(C)cc1S(=O)(=O)N[C@@H]1CCC[C@@H](N2CCCC2)[C@@H]1O` | 3.107 |
| `[H][C@]12CCC[C@@]1(COc1cccnc1)CN(Cc1cnn(C)c1)C2` | -2.802 |
| `CNC(=O)C1CN(c2cc(C)ncn2)CCN1Cc1ccccc1` (configuration not stated) | 10.46 |
| `COC(=O)C(C)(C)NC(=O)c1scnc1Cl` | 8.233 |
| `[H][C@]12CC[C@]([H])(CC(=O)N(C)C1)N2C(=O)c1ccc(C)[nH]c1=O` | 9.083 |
| `O=C(NCC1CC1)C1=NOC2(CCN(S(=O)(=O)c3ccc(F)cc3)C2)C1` (configuration not stated) | 0.2433 |
| `O=C(O)C(F)(F)F.O=C(O)C(F)(F)F.[H][C@@]12CN(Cc3ccccn3)C[C@]1([H])C(=O)N(c1ccsc1)C2` | 8.918 |
| `CSCc1noc(-c2ccc(C)c(N3CCNC3=O)c2)n1` | 0.08651 |
| `CSCc1cccc(S(=O)(=O)NCCCO)c1` | 12.43 |
| `CSCc1ccc(N2CCC(C(O)CC(C)C)CC2)nc1` (configuration not stated) | -10.19 |
| `CC(C)C(=O)N1CCCC(Cc2ncccn2)C1` (configuration not stated) | 0.1902 |
| `CNC(=O)c1ccc(-c2ccc(CNS(=O)(=O)N(C)C)cc2)nc1C` | 5.824 |
| `CC(O)CN1CCC(CN(C)Cc2cccc(C(=O)N(C)C)c2)CC1` (configuration not stated) | 14.44 |
| `CC(=O)N1CCC(CCc2ccnc(NC(=O)c3ccccn3)c2)CC1` | 74.38 and 72.77 and 65.08 |
| `O=C(N1CCCC(n2cncn2)C1)C1(c2cccc(F)c2)CCCC1` (configuration not stated) | 11.91 |
| `O=C(c1ccccn1)N1Cc2ccccc2OC2(CCOCC2)C1` | 0.7179 |
| `CCc1cc(C(=O)N2CCc3nc4c(C)csc4c(=O)n3CC2)on1` | -3.013 |
| `CCOCC1CN(Cc2ccncc2)Cc2nn(C)cc21.O=C(O)C(F)(F)F.O=C(O)C(F)(F)F` (configuration not stated) | -10.46 |
| `CCc1noc(-c2cccc(OCC(=O)NC(C)C)c2)n1` | -12.09 |
| `CCc1noc(C(C)N2CCOCC2)n1` (configuration not stated) | -7.353 |
| `CCS(=O)(=O)N1CCCC2(CCCC(=O)N2C)C1` (configuration not stated) | 7.357 |
| `Cc1cnn(CC2CCCCN2Cc2nc(N)c3ccccc3n2)c1` (configuration not stated) | 41.2 and 50.14 and 52.23 |
| `Cc1ccn(-c2ccccc2NCc2cccnc2C)n1` | -10.04 |
| `Cc1cc(N(C)Cc2ncc(-c3ccccc3C(=O)O)s2)ncn1` | 10.83 |
| `O=C(CN1CCN(c2ccc3nncn3n2)CC1)NC1CCCCC1` | -2.875 |
| `Cc1nn(C)c(C)c1C1CCCN1Cc1nnc(C2CC2)n1C` (configuration not stated) | -11.5 |
| `O=C(c1ccco1)N1CCOCC2(C1)CN(c1ccccc1)C(=O)CO2` (configuration not stated) | -5.555 and -0.5491 and 9.848 |
| `Cc1ccc(SCCCNC(=O)c2cn([C@H]3CC[C@@H](N)CC3)nn2)cc1` | -22.63 and -17.36 |
| `COc1ccc(CN(C)CC(O)COCc2ccccc2Cl)c(OC)c1.O=C(O)C(=O)O` (configuration not stated) | -10.45 |
| `CCn1ccc(C(=O)N(C)Cc2cnn(-c3cccc(OC)c3)c2)n1` | -38.3 and -41.56 |
| `O=C(NC[C@H]1COCc2nc3cc(F)ccc3n21)c1cccnc1` | 3.972 and -0.1411 |
| `CN(C)CCN(CC1CCCO1)S(=O)(=O)NCc1ccccc1` (configuration not stated) | 14.92 |
| `Cc1cnc(C(=O)NCc2cccnc2OC(C)C)cn1` | 3.22 |
| `Cc1csc(Nc2cc(C3CCCCN3C)nc(C)n2)n1` (configuration not stated) | 3.806 |
| `CNS(=O)(=O)c1cc(C(=O)NC2COc3ccccc32)cc(C)c1C` (configuration not stated) | -5.461 |
| `O=C(NCCCN1CCOCC1)Nc1cnc2cc(Cl)ccc2c1O` | -8.412 |
| `CCc1ncc(C(=O)N2CCC(Nc3ccc(C)nn3)CC2)s1` | 7.493 |
| `CN(C(=O)C1CSCN1S(=O)(=O)c1ccc(F)cc1)C1CC1` (configuration not stated) | -18.92 |
| `Cc1nc(C)n(CC2CCCN(c3ncnc4ccsc34)C2)n1` (configuration not stated) | 5.76 |
| `CN(CC(=O)N1CCN(c2ncccn2)CC1)c1ccc(Cl)cn1` | -13.06 |
| `COc1cc(F)c(S(=O)(=O)N2CCN(C)Cc3ccccc32)cc1OC` | 0.9143 |
| `O=C(CCNC(=O)c1ccoc1)Nc1ccccc1F` | 0 |

10 of the entries, repeated:

For CC(C)c1nc2n(n1)CC(NCc1nnc(-c3ccco3)o1)CC2 (configuration not stated) the result was -6.4%.
For O=C(NCC1CC1)C1=NOC2(CCN(S(=O)(=O)c3ccc(F)cc3)C2)C1 (configuration not stated) the result was 0.2433%.
For O=C(O)C(F)(F)F.O=S(=O)(C1CC1)N1CCC2(CCCN(c3ncccn3)C2)C1 (configuration not stated) the result was 8.231%.
For Cc1cc(N(C)Cc2ncc(-c3ccccc3C(=O)O)s2)ncn1 the result was 10.83%.
For CNS(=O)(=O)c1cc(C(=O)NC2COc3ccccc32)cc(C)c1C (configuration not stated) the result was -5.461%.
For CCc1nnsc1C(=O)N1CCCN(Cc2nccn2C)CC1 the result was -6.243%.
For Cc1cnn(CC2CCCCN2Cc2nc(N)c3ccccc3n2)c1 (configuration not stated) the result was 41.2% and 50.14% and 52.23%.
For Cn1nc2c(cc1=O)CN(Cc1nc(-c3cccnc3)no1)CC2 the result was -2.563%.
For CSCc1ccc(N2CCC(C(O)CC(C)C)CC2)nc1 (configuration not stated) the result was -10.19%.
For O=C(NCCCN1CCOCC1)Nc1cnc2cc(Cl)ccc2c1O the result was -8.412%.